For the experiment, the target named is M1 muscarinic acetylcholine receptor fused to Renilla luciferase 8 (human) (UniProt P11229). The experiment is described as follows: FRET or BRET; β-arrestin 2 recruitment in live parental FlpIn CHO cells transiently co-transfected with M1-Rluc8 (10 ng/well) and YFP-β-arrestin 2 (40 ng/well); Hanks' balanced salt solution, 37°C; coelenterazine h 5 μM; increasing ACh with or without allosteric modulator; read 5 min after agonist; BRET ratio YFP/Rluc8 normalised to the maximum ACh response. For orientation: BRET reads energy transfer from a luciferase to a nearby fluorophore.

Protein sequences, listed by entry. Tags and fused reporters are not part of them.
UniProt P11229: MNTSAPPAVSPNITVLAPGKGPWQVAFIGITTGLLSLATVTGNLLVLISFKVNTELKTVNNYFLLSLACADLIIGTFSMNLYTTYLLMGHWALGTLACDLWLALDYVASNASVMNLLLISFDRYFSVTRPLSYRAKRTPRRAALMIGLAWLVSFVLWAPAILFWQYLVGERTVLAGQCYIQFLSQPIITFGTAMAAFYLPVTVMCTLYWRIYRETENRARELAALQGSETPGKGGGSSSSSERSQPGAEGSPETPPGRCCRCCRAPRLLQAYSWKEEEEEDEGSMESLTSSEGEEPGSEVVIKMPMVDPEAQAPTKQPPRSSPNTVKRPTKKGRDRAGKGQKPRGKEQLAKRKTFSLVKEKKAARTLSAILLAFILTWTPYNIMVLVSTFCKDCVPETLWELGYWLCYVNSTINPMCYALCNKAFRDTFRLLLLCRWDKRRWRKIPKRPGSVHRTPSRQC
UniProt P32121: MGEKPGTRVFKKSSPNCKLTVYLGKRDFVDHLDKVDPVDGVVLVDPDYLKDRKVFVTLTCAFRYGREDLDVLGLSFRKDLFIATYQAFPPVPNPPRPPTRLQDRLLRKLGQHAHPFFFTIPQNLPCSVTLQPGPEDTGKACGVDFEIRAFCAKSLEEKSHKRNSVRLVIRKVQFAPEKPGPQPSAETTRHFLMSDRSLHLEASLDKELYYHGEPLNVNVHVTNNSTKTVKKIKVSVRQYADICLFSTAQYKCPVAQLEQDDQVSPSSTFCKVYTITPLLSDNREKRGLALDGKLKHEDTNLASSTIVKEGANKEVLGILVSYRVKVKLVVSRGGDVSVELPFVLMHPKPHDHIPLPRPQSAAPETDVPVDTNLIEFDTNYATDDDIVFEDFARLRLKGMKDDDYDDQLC

These are yes or no findings as the source states them, for the method shown. In cells and extracts the contact can be indirect. Some entries that bind do so weakly or less than the wild type.

Turning to “YFP-β-arrestin 2 (from UniProt P32121 1-409)”, the binding entry is on record as “binds”.

These data come from article PMC7616174, “Development of Novel 4-Arylpyridin-2-one and 6-Arylpyrimidin-4-one Positive Allosteric Modulators of the M1 Muscarinic Acetylcholine Receptor” (ChemMedChem, 2020).
